The list shows a part of the results.
How the values were obtained:
Test in all cases: glycan array binding signal (z-score within array); higher = stronger binding
Conditions in all cases: glycan notation: IUPAC condensed, linker removed
Fuc(a1-2)Gal = target: Fuc(a1-2)Gal
Summary of the method: (§1)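 The binding signal is a Z-score computed within each array. Data were drawn from 3228 arrays in the Consortium for Functional Glycomics database, restricted to those with a known protein sequence. Scores were averaged over arrays of the same protein sequence at different concentrations or buffers, and over linkers, and negative values can be taken as non-binding.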

Fuc(a1-2)Gal(b1-3)GalNAc = target: Fuc(a1-2)Gal(b1-3)GalNAc
Summary of the method: as §1

[1] = target: Fuc(a1-2)Gal(b1-3)GalNAc(a1-3)[Fuc(a1-2)]Gal(b1-4)Glc
Summary of the method: as §1

[2] = target: Fuc(a1-2)Gal(b1-3)GalNAc(a1-3)[Fuc(a1-2)]Gal(b1-4)GlcNAc
Summary of the method: as §1

[3] = target: Fuc(a1-2)Gal(b1-3)GalNAc(b1-3)Gal
Summary of the method: as §1

[4] = target: Fuc(a1-2)Gal(b1-3)GalNAc(b1-3)Gal(a1-4)Gal(b1-4)Glc
Summary of the method: as §1

[5] = target: Fuc(a1-2)Gal(b1-3)GalNAc(b1-4)[Neu5Ac(a2-3)]Gal(b1-4)Glc
Summary of the method: as §1

Fuc(a1-2)Gal(b1-3)GlcNAc = target: Fuc(a1-2)Gal(b1-3)GlcNAc
Summary of the method: as §1

[6] = target: Fuc(a1-2)Gal(b1-3)GlcNAc(b1-2)Man(a1-3)[Fuc(a1-2)Gal(b1-3)GlcNAc(b1-2)Man(a1-6)]Man(b1-4)GlcNAc(b1-4)GlcNAc
Summary of the method: as §1

[7] = target: Fuc(a1-2)Gal(b1-3)GlcNAc(b1-2)Man(a1-3)[Fuc(a1-2)Gal(b1-3)GlcNAc(b1-2)Man(a1-6)]Man(b1-4)GlcNAc(b1-4)[Fuc(a1-6)]GlcNAc
Summary of the method: as §1

[8] = target: Fuc(a1-2)Gal(b1-3)GlcNAc(b1-3)Gal(b1-4)Glc
Summary of the method: as §1

[9] = target: Fuc(a1-2)Gal(b1-3)GlcNAc(b1-3)GalNAc
Summary of the method: as §1

[10] = target: Fuc(a1-2)Gal(b1-3)GlcNAc(b1-3)[Fuc(a1-2)Gal(b1-3)GlcNAc(b1-6)]GalNAc
Summary of the method: as §1

[11] = target: Fuc(a1-2)Gal(b1-3)GlcNAc(b1-3)[Fuc(a1-3)[Gal(b1-4)]GlcNAc(b1-6)]Gal(b1-4)Glc
Summary of the method: as §1

[12] = target: Fuc(a1-2)Gal(b1-3)GlcNAc(b1-3)[Gal(b1-4)GlcNAc(b1-6)]Gal(b1-4)Glc
Summary of the method: as §1

[13] = target: Fuc(a1-2)Gal(b1-3)GlcNAc(b1-3)[Neu5Ac(a2-6)Gal(b1-4)GlcNAc(b1-6)]Gal(b1-4)Glc
Summary of the method: as §1

[14] = target: Fuc(a1-2)Gal(b1-3)GlcNAc6S
Summary of the method: as §1

[15] = target: Fuc(a1-2)Gal(b1-3)[Fuc(a1-4)]GlcNAc
Summary of the method: as §1

[16] = target: Fuc(a1-2)Gal(b1-3)[Fuc(a1-4)]GlcNAc(b1-2)Man(a1-3)[Fuc(a1-2)Gal(b1-3)[Fuc(a1-4)]GlcNAc(b1-2)Man(a1-3)]Man(b1-4)GlcNAc(b1-4)GlcNAc
Summary of the method: as §1

[17] = target: Fuc(a1-2)Gal(b1-3)[Fuc(a1-4)]GlcNAc(b1-2)Man(a1-3)[Fuc(a1-2)Gal(b1-3)[Fuc(a1-4)]GlcNAc(b1-2)Man(a1-6)]Man(b1-4)GlcNAc(b1-4)GlcNAc
Summary of the method: as §1

[18] = target: Fuc(a1-2)Gal(b1-3)[Fuc(a1-4)]GlcNAc(b1-2)Man(a1-3)[Fuc(a1-2)Gal(b1-3)[Fuc(a1-4)]GlcNAc(b1-2)Man(a1-6)]Man(b1-4)GlcNAc(b1-4)[Fuc(a1-6)]GlcNAc(b1-4)[Fuc(a1-6)]GlcNAc
Summary of the method: as §1

[19] = target: Fuc(a1-2)Gal(b1-3)[Fuc(a1-4)]GlcNAc(b1-3)[Fuc(a1-3)[Gal(b1-4)]GlcNAc(b1-6)]Gal(b1-4)Glc
Summary of the method: as §1

[20] = target: Fuc(a1-2)Gal(b1-3)[Fuc(a1-4)]GlcNAc(b1-3)[Gal(b1-4)GlcNAc(b1-6)]Gal(b1-4)Glc
Summary of the method: as §1

[21] = target: Fuc(a1-2)Gal(b1-4)Fuc(a1-3)]GlcNAc(b1-2)Man(a1-3)[Fuc(a1-2)Gal(b1-4)[Fuc(a1-3)]GlcNAc(b1-2)Man(a1-6)]Man(b1-4)GlcNAc(b1-4)GlcNAc
Summary of the method: as §1

Fuc(a1-2)Gal(b1-4)Glc = target: Fuc(a1-2)Gal(b1-4)Glc
Summary of the method: as §1

Fuc(a1-2)Gal(b1-4)Glc6S = target: Fuc(a1-2)Gal(b1-4)Glc6S
Summary of the method: as §1

Fuc(a1-2)Gal(b1-4)GlcNAc = target: Fuc(a1-2)Gal(b1-4)GlcNAc
Summary of the method: as §1

[22] = target: Fuc(a1-2)Gal(b1-4)GlcNAc(b1-2)Man
Summary of the method: as §1

[23] = target: Fuc(a1-2)Gal(b1-4)GlcNAc(b1-2)Man(a1-3)[Fuc(a1-2)Gal(b1-4)GlcNAc(b1-2)Man(a1-6)]Man(b1-4)GlcNAc(b1-4)GlcNAc
Summary of the method: as §1

[24] = target: Fuc(a1-2)Gal(b1-4)GlcNAc(b1-2)Man(a1-3)[Fuc(a1-2)Gal(b1-4)GlcNAc(b1-2)Man(a1-6)]Man(b1-4)GlcNAc(b1-4)[Fuc(a1-6)]GlcNAc
Summary of the method: as §1

B1: GST-Gap1 (Streptococcus parasanguinis), A1C3L5 (protein)
chain: MFYFVPSWYNGQRQWYYDTPWWFRVKNRMTFDDSVNQVKMFLQGQEEIGLMILNYQPQLRYFLHKQNIFGIYYWSFFDDIQNITRSYTKIIHLKDLNWPEGCEFLYSPFAVVVRLKGEIFAIVNYAEDGNLHSVSFQKNGKVTKDYIFDDRGFLSSILYYDIDERPLYQDYLNINGVWQVREFLKKENDPTPILMINDFSDQTFSKKYYNGWEELIKERLAIFQNNHVENEDVFVLASDTQHNQLVSSIFKEHRKIYSFFGNRFNLENLGQDRISINDATFLVVDTEKNEELLRKTCENLVFKSIPIVRLSPFDSRLRLGHSQTVKEQIIYFHIDNIELDELYSVIAIILELMTLHLDIELRIVTFRQDFQLDLLKTWIIDFIKTNHFEDLLFKQISEGENEIEDEGEIELSRIAMECFTNENQIIKCLDTARLVIDLGIEPDLYTQIASISAGIPQINRVSSDYVIHQKNGLVISDISKLSSAIEFYFDGLFNWNEALIYAVRKMSDYTSGKILKQWKGMLKKK
glycan array binding signal (z-score) (Fuc(a1-2)Gal): 0.04 | glycan array binding signal (z-score) (Fuc(a1-2)Gal(b1-3)GalNAc): -0.117 | glycan array binding signal (z-score) [1]: -0.342 | glycan array binding signal (z-score) [2]: -0.335 | glycan array binding signal (z-score) [3]: 0.044 | glycan array binding signal (z-score) [4]: 0.159 | glycan array binding signal (z-score) [5]: -0.556 | glycan array binding signal (z-score) (Fuc(a1-2)Gal(b1-3)GlcNAc): -0.221 | glycan array binding signal (z-score) [6]: 0.565 | glycan array binding signal (z-score) [7]: 0.252 | glycan array binding signal (z-score) [8]: -0.291 | glycan array binding signal (z-score) [9]: 0.373 | glycan array binding signal (z-score) [10]: -0.608 | glycan array binding signal (z-score) [11]: -0.458 | glycan array binding signal (z-score) [12]: 0.111 | glycan array binding signal (z-score) [13]: -0.503 | glycan array binding signal (z-score) [14]: 0.74 | glycan array binding signal (z-score) [15]: -0.311 | glycan array binding signal (z-score) [16]: 0.383 | glycan array binding signal (z-score) [17]: 0.607 | glycan array binding signal (z-score) [18]: -0.061 | glycan array binding signal (z-score) [19]: -0.816 | glycan array binding signal (z-score) [20]: -0.441 | glycan array binding signal (z-score) [21]: -0.849 | glycan array binding signal (z-score) (Fuc(a1-2)Gal(b1-4)Glc): -0.56 | glycan array binding signal (z-score) (Fuc(a1-2)Gal(b1-4)Glc6S): -0.122 | glycan array binding signal (z-score) (Fuc(a1-2)Gal(b1-4)GlcNAc): 0.124 | glycan array binding signal (z-score) [22]: -0.936 | glycan array binding signal (z-score) [23]: 0.389 | glycan array binding signal (z-score) [24]: 0.411

Reference: the supplement of paper PMC8728848
